The values that follow come from the supplement of paper PMC6411743.

Protein sequences, listed by entry. Tags and fused reporters are not part of them. Lines headed by an entry give the natural chain unless they say otherwise; changes in a name come on top.
UniProt O15439: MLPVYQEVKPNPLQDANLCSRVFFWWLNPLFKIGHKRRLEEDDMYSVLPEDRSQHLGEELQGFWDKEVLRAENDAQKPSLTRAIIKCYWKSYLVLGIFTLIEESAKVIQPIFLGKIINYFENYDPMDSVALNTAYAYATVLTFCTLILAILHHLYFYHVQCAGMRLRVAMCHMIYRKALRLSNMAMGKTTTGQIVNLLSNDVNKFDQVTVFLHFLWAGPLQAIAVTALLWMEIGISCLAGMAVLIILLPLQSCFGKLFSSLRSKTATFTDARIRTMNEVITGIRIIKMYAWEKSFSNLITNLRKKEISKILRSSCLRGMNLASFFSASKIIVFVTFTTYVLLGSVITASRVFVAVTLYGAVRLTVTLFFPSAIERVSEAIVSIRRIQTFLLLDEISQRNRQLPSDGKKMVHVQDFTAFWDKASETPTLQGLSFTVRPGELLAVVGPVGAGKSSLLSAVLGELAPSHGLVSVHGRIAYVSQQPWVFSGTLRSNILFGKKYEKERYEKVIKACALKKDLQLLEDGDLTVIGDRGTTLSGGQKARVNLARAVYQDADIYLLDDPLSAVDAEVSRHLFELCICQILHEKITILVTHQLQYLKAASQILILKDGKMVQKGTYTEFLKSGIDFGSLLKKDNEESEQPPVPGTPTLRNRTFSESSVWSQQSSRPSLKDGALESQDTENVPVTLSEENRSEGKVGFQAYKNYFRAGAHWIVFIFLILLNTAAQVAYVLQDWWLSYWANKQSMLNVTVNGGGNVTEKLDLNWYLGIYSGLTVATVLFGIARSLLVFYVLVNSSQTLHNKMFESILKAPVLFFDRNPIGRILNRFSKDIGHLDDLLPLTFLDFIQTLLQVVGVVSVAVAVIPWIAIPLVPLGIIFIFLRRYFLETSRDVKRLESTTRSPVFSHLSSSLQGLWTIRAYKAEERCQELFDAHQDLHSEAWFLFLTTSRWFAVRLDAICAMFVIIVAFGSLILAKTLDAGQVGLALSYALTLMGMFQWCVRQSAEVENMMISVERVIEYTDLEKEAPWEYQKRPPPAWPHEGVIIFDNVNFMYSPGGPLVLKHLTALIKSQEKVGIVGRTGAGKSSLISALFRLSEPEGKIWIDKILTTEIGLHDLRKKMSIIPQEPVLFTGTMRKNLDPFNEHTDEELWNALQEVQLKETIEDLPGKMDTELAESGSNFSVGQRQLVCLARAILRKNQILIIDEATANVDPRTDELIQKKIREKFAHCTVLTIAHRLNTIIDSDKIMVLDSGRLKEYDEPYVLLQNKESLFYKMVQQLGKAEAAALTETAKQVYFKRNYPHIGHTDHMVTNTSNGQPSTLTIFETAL
UniProt O15427: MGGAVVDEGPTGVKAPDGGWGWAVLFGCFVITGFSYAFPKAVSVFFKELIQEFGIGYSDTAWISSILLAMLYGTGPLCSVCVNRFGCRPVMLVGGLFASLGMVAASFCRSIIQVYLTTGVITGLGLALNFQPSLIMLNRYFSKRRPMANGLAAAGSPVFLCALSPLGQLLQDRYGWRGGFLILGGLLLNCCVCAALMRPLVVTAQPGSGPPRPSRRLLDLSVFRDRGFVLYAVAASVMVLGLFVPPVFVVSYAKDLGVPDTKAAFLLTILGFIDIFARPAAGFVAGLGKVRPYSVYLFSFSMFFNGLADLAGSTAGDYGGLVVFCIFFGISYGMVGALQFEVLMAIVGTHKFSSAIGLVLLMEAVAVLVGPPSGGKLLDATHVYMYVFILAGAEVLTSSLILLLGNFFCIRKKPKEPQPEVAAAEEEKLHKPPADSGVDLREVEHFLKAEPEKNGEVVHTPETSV
UniProt O14647: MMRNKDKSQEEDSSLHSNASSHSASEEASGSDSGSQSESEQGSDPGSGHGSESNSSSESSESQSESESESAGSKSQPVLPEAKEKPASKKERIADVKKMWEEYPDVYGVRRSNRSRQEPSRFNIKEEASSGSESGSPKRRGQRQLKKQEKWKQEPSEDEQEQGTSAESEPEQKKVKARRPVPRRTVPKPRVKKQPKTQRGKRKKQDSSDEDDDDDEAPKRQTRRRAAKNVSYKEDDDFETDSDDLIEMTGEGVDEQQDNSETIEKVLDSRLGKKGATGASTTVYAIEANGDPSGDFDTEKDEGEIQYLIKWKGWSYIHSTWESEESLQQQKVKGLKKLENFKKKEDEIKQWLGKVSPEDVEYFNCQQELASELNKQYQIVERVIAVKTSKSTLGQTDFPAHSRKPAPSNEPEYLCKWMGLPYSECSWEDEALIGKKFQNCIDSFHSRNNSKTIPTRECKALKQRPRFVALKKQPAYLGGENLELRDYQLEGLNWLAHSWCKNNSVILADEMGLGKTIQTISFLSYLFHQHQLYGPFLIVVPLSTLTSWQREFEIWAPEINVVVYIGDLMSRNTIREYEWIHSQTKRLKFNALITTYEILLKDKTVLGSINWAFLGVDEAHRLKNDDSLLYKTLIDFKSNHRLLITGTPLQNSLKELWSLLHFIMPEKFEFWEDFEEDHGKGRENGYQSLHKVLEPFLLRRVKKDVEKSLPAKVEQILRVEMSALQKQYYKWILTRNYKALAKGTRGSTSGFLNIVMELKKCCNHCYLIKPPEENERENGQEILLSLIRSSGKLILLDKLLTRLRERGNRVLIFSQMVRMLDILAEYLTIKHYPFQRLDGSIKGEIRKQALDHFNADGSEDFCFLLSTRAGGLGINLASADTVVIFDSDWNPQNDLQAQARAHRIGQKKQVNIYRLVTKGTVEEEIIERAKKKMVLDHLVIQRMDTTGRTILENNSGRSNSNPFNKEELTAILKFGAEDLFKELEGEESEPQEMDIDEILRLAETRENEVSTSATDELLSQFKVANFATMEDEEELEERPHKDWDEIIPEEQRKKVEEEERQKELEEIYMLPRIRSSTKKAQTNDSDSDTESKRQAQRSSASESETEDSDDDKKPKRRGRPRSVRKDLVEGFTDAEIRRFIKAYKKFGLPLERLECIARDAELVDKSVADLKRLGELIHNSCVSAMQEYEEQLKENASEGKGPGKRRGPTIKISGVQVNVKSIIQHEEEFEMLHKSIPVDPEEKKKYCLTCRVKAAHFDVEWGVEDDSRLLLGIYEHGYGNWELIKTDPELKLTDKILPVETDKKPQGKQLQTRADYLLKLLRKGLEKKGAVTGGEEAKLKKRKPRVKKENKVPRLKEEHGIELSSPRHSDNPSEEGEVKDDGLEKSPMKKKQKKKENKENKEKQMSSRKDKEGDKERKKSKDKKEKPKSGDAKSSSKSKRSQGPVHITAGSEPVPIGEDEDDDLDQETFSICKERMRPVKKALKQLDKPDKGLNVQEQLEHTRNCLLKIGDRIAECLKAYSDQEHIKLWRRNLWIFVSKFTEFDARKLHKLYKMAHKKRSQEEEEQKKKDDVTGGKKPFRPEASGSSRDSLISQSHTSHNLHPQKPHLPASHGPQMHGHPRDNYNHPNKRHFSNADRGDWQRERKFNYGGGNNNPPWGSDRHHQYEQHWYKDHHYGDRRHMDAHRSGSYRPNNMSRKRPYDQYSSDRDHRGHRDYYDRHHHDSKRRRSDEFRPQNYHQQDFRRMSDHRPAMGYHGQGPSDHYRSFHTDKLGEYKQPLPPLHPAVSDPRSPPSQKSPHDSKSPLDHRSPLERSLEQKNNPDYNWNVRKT
UniProt O15155: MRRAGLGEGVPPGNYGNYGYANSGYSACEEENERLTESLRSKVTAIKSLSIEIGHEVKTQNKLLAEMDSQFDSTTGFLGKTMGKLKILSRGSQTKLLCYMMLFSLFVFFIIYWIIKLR
UniProt O15126: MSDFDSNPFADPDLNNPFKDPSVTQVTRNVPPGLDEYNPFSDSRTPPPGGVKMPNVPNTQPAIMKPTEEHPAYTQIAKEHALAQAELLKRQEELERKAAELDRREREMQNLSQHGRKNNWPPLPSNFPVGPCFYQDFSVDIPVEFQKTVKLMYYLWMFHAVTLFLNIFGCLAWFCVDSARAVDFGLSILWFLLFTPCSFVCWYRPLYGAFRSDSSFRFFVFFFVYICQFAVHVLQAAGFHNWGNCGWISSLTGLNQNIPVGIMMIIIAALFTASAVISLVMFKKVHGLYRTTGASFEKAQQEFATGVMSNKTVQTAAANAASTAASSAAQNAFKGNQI
UniProt O15260: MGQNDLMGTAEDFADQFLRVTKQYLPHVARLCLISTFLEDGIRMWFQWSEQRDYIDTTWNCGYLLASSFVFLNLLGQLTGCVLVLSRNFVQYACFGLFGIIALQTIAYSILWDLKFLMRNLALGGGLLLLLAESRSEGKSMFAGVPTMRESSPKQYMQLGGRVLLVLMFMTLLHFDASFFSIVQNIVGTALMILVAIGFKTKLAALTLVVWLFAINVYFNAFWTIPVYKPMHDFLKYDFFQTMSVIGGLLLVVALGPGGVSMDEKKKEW
UniProt O00566: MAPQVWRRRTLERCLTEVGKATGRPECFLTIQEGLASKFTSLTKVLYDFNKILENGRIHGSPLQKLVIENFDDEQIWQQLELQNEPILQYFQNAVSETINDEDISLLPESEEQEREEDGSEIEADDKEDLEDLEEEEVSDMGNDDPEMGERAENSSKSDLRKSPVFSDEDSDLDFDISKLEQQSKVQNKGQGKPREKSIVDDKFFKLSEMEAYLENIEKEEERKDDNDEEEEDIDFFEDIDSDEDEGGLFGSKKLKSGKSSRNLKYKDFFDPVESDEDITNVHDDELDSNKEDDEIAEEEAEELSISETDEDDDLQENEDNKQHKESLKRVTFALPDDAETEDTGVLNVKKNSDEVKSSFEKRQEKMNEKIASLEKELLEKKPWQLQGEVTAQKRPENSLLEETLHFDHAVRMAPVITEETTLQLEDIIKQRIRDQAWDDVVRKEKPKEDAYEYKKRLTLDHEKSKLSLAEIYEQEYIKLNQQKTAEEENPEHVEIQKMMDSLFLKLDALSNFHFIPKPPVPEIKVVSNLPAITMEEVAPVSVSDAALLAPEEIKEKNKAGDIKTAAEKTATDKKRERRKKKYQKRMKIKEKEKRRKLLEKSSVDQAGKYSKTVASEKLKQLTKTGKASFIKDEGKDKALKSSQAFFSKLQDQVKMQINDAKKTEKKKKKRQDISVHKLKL

± gives the standard deviation of the averaged measurements. The entries are a selection whose mix differs from that of the whole data set.

Compound in this assay: Nc1ncnc2c1ncn2[C@@H]1O[C@H](COP(=O)(O)OP(=O)(O)OP(=O)(O)O)[C@@H](O)[C@H]1O [adenosine triphosphate]
The assay is described as follows: NP40-soluble protein abundance relative to vehicle (solubility fold change) (ratio); higher = more soluble protein in presence of ATP. The procedure, abridged:
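In three independent experiments, Jurkat crude lysate made by Dounce homogenisation was treated for 10 min at room temperature and then 3 min at 37 °C with eight concentrations ranging from 0.1 to 10 mM. It was then solubilised with 0.8% NP40 plus benzonase for 60 min at 4 °C and ultracentrifuged. The supernatant was TMT-labelled for LC-MS/MS, and each value is the fold change against the detergent-processed vehicle for the same replicate, using vsn-normalised intensities.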

Turning to UniProt O15439 and related entries, the NP40-soluble protein abundance was found to be 0.853 ± 0.061 (concentration: 1mM); 0.907 ± 0.082 (concentration: 2mM); 1.05 ± 0.13 (concentration: 4mM); 1.06 ± 0.15 (concentration: 6mM); 0.908 ± 0.12 (concentration: 8mM); 0.884 ± 0.082 (concentration: 10mM).
For SLC16A3 (UniProt O15427), the NP40-soluble protein abundance (concentration: 1mM) turned out to be 0.956 ± 0.011; the NP40-soluble protein abundance (concentration: 2mM) is 0.934 ± 0.084; the NP40-soluble protein abundance (concentration: 4mM) was 0.945 ± 0.048; the NP40-soluble protein abundance (concentration: 6mM) came out at 0.932 ± 0.019; the NP40-soluble protein abundance (concentration: 8mM) was determined as 0.941 ± 0.061; the NP40-soluble protein abundance (concentration: 10mM) amounted to 0.915 ± 0.049.
In the case of CHD2 (UniProt O14647), the NP40-soluble protein abundance reads like this: (concentration: 1mM) 1.09 ± 0.034; (concentration: 2mM) 1.1 ± 0.032; (concentration: 4mM) 1.19 ± 0.042; (concentration: 6mM) 1.22 ± 0.041; (concentration: 8mM) 1.24 ± 0.06; (concentration: 10mM) 1.31 ± 0.071.
Regarding BET1 (UniProt O15155), the NP40-soluble protein abundance is, setting by setting: (concentration: 1mM) 1 ± 0.084; (concentration: 2mM) 0.98 ± 0.066; (concentration: 4mM) 0.998 ± 0.035; (concentration: 6mM) 0.946 ± 0.09; (concentration: 8mM) 0.992 ± 0.082; (concentration: 10mM) 0.972 ± 0.053.
For the target SCAMP1 (UniProt O15126), the NP40-soluble protein abundance is, setting by setting: (concentration: 1mM) 0.975 ± 0.027; (concentration: 2mM) 0.984 ± 0.01; (concentration: 4mM) 0.958 ± 0.03; (concentration: 6mM) 1.01 ± 0.038; (concentration: 8mM) 0.954 ± 0.039; (concentration: 10mM) 0.94 ± 0.031.
In the case of UniProt O15260 and related entries, the NP40-soluble protein abundance reads like this: (concentration: 1mM) 1.01 ± 0.12; (concentration: 2mM) 1.01 ± 0.1; (concentration: 4mM) 1.01 ± 0.11; (concentration: 6mM) 0.941 ± 0.11; (concentration: 8mM) 1.02 ± 0.11; (concentration: 10mM) 0.98 ± 0.12.
Turning to ARPC1B (UniProt O15143), the NP40-soluble protein abundance is 0.985 ± 0.024 (concentration: 1mM); 0.984 ± 0.036 (concentration: 2mM); 0.948 ± 0.038 (concentration: 4mM); 0.971 ± 0.026 (concentration: 6mM); 0.953 ± 0.014 (concentration: 8mM); 0.944 ± 0.034 (concentration: 10mM).
MPHOSPH10 (UniProt O00566): the NP40-soluble protein abundance runs as follows: (concentration: 1mM) 0.997 ± 0.058; (concentration: 2mM) 1.03 ± 0.024; (concentration: 4mM) 1.02 ± 0.025; (concentration: 6mM) 1.13 ± 0.062; (concentration: 8mM) 1.06 ± 0.011; (concentration: 10mM) 1.05 ± 0.078.
